# Data taken from PubChem BioAssay (EPA / NIEHS).
# Chains of the proteins cited; added tags and fusions are not shown.
# UniProt P25929, whole entry, looked up: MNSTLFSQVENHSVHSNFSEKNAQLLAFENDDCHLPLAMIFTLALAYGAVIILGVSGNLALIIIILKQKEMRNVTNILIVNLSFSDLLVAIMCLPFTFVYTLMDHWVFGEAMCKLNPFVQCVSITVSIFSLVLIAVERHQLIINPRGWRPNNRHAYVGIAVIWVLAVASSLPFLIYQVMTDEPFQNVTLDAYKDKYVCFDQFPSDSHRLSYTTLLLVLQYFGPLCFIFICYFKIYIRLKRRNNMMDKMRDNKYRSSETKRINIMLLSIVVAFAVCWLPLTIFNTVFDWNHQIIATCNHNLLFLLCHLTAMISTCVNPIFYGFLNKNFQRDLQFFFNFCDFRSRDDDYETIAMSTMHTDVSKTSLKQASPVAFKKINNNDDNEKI
# UniProt P49146, whole entry, looked up: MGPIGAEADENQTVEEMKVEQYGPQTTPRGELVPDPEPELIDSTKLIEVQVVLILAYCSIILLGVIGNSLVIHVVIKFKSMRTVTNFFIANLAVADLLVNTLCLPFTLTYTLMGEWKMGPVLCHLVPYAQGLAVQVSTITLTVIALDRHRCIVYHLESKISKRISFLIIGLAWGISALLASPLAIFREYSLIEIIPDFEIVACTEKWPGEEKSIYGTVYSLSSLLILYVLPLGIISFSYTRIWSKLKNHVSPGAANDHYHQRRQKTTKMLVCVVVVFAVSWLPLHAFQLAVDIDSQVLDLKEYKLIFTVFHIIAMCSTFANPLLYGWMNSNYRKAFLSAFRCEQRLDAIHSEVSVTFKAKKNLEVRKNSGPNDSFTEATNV
# This list was built around the results that the source calls inconclusive (neither active nor inactive); the mix of calls is not that of the screen. Where the call is inconclusive, the potency comes from a doubtful curve fit. Activity calls are given as the source filed them. How the source made its calls: active means hit-call score of the fitted dose curve at least 0.9, where 1 is the maximum; inconclusive means response in the unintended direction; inactive means score below 0.9.
# Target: human Neuropeptide Receptor Y1 (NPY1), NPY1R (gene 4886) (UniProt P25929)
# Assay: NVS_GPCR_hNPY1: NovaScreen (NVS) G Protein-Coupled Receptor Assay for human Neuropeptide Receptor Y1 (NPY1) (AID 2283276)
# Method in brief: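 Cell-free radioligand binding using receptor extracted from SK-N-MC cells, 1 h incubation, filter-based scintillation counting. Primary screen single concentration 25 uM in duplicate; actives followed in concentration series. Loss of bound signal scored versus DMSO.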
SMILES,AC50,outcome
Oc1ccc(O)cc1,active: 10.8 µM,–
O=C(O)Cc1cc(I)c(Oc2cc(I)c(O)c(I)c2)c(I)c1,inconclusive: 0.306 µM,–
COCCOC[C@H](CC1(C(=O)NC2CCC(C(=O)O)CC2)CCCC1)C(=O)Oc1ccc2c(c1)CCC2 (stereo partly specified),inconclusive: 1.04 µM,–
C1CNCCN1,–,inactive
O=Cc1ccccc1C=O,active: 12.9 µM,–

# Target: Neuropeptide Y receptor type 2 (Homo sapiens) (UniProt P49146)
# Assay: NVS_GPCR_hNPY2: NovaScreen (NVS) G Protein-Coupled Receptor Assay for human Neuropeptide Receptor Y2 (NPY2) (AID 2283277)
# Method in brief: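 Radioligand binding on membranes extracted from SK-N-MC cells, cell-free, read 1 h after dosing by filter-based scintillation counting. Loss of signal vs DMSO. Primary screen in duplicate at 25 uM; actives followed up in concentration-response up to 50 uM.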
SMILES,outcome,AC50
O=C1CCCCC1,inactive,–
CCCCCCCCCCCO,inactive,–
CN(C)c1ccc(C(=C2C=CC(=[N+](C)C)C=C2)c2ccc(N(C)C)cc2)cc1,–,active: 16.6 µM
CCCCCCCCCCCCCCOS(=O)(=O)O,–,inconclusive: 25 µM
COCCOC[C@H](CC1(C(=O)NC2CCC(C(=O)O)CC2)CCCC1)C(=O)Oc1ccc2c(c1)CCC2 (stereo partly specified),–,inconclusive: 25 µM
COCCO,–,inconclusive: 25 µM
C=CCCCCCCCCC(=O)O,inactive,–
O=C(O)Cn1c(=O)n(Cc2ccc(Br)cc2F)c(=O)c2ccc(Cl)cc21,inactive,–
CC(C)(c1ccc(O)cc1)c1ccc(O)cc1,inactive,–
CCCCCCOCCO,inactive,–
CC(C)C(=O)Nc1ccc([N+](=O)[O-])c(C(F)(F)F)c1,–,inconclusive: 25 µM

# Full records as entered above.
# CN(C)c1ccc(C(=C2C=CC(=[N+](C)C)C=C2)c2ccc(N(C)C)cc2)cc1 reads AC50: active: 16.6 µM
# CCCCCCOCCO reads outcome: inactive
